Source: publication PMC8269312
No constants are given. Whether binding was seen depends on the method and setting. In cells and extracts the contact can be indirect. Some results given as binding are weak or reduced against the parent protein; the word gives no strength. Tags and fused reporters may be left off the sequences shown.

B1: HaloTag-fused ITK (interleukin-2-inducible T-cell kinase) (enzyme, UniProt Q08881 1-620)
chain: MNNFILLEEQLIKKSQQKRRTSPSNFKVRFFVLTKASLAYFEDRHGKKRTLKGSIELSRIKCVEIVKSDISIPCHYKYPFQVVHDNYLLYVFAPDRESRQRWVLALKEETRNNNSLVPKYHPNFWMDGKWRCCSQLEKLATGCAQYDPTKNASKKPLPPTPEDNRRPLWEPEETVVIALYDYQTNDPQELALRRNEEYCLLDSSEIHWWRVQDRNGHEGYVPSSYLVEKSPNNLETYEWYNKSISRDKAEKLLLDTGKEGAFMVRDSRTAGTYTVSVFTKAVVSENNPCIKHYHIKETNDNPKRYYVAEKYVFDSIPLLINYHQHNGGGLVTRLRYPVCFGRQKAPVTAGLRYGKWVIDPSELTFVQEIGSGQFGLVHLGYWLNKDKVAIKTIREGAMSEEDFIEEAEVMMKLSHPKLVQLYGVCLEQAPICLVFEFMEHGCLSDYLRTQRGLFAAETLLGMCLDVCEGMAYLEEACVIHRDLAARNCLVGENQVIKVSDFGMTRFVLDDQYTSSTGTKFPVKWASPEVFSFSRYSSKSDVWSFGVLMWEVFSEGKIPYENRSNSEVVEDISTGFRLYKPRLASTHVYQIMNHCWKERPEDRPAFSRLLRQLAEIAESGL
B2: HaloTag-fused GART (trifunctional purine biosynthetic protein adenosine-3) (enzyme, UniProt P22102 1-1010)
chain: MAARVLIIGSGGREHTLAWKLAQSHHVKQVLVAPGNAGTACSEKISNTAISISDHTALAQFCKEKKIEFVVVGPEAPLAAGIVGNLRSAGVQCFGPTAEAAQLESSKRFAKEFMDRHGIPTAQWKAFTKPEEACSFILSADFPALVVKASGLAAGKGVIVAKSKEEACKAVQEIMQEKAFGAAGETIVIEELLDGEEVSCLCFTDGKTVAPMPPAQDHKRLLEGDGGPNTGGMGAYCPAPQVSNDLLLKIKDTVLQRTVDGMQQEGTPYTGILYAGIMLTKNGPKVLEFNCRFGDPECQVILPLLKSDLYEVIQSTLDGLLCTSLPVWLENHTALTVVMASKGYPGDYTKGVEITGFPEAQALGLEVFHAGTALKNGKVVTHGGRVLAVTAIRENLISALEEAKKGLAAIKFEGAIYRKDVGFRAIAFLQQPRSLTYKESGVDIAAGNMLVKKIQPLAKATSRSGCKVDLGGFAGLFDLKAAGFKDPLLASGTDGVGTKLKIAQLCNKHDTIGQDLVAMCVNDILAQGAEPLFFLDYFSCGKLDLSVTEAVVAGIAKACGKAGCALLGGETAEMPDMYPPGEYDLAGFAVGAMERDQKLPHLERITEGDVVVGIASSGLHSNGFSLVRKIVAKSSLQYSSPAPDGCGDQTLGDLLLTPTRIYSHSLLPVLRSGHVKAFAHITGGGLLENIPRVLPEKLGVDLDAQTWRIPRVFSWLQQEGHLSEEEMARTFNCGVGAVLVVSKEQTEQILRDIQQHKEEAWVIGSVVARAEGSPRVKVKNLIESMQINGSVLKNGSLTNHFSFEKKKARVAVLISGTGSNLQALIDSTREPNSSAQIDIVISNKAAVAGLDKAERAGIPTRVINHKLYKNRVEFDSAIDLVLEEFSIDIVCLAGFMRILSGPFVQKWNGKMLNIHPSLLPSFKGSNAHEQALETGVTVTGCTVHFVAEDVDAGQIILQEAVPVKRGDTVATLSERVKLAEHKIFPAALQLVASGTVQLGENGKICWVKEE

What was measured:
[1] = target: T1, NanoLuc-fused GART (trifunctional purine biosynthetic protein adenosine-3) (UniProt P22102); test: FRET or BRET; NanoBRET in HEK 293 cells transfected with NanoLuc and HaloTag fusion vectors of ITK and GART, or the HaloTag control vector; NanoBRET Nano-Glo Detection system, GloMax Discover; BRET ratios in milliBRET units (mBU); HaloTag concentration varied
T1 sequence: B2 chain

[2] = target: T2, NanoLuc-fused ITK (interleukin-2-inducible T-cell kinase) (human) (UniProt Q08881); test: as above
T2 sequence: B1 chain

Binder | binding [1] | binding [2]
B1 | binds | –
B2 | – | binds
